PubChem BioAssay AID1224826, NIAID, 2016

Purpose: 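Regulators of Tlr4 signalling leading to Tnf-alpha expression in macrophages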 (primary screen)
Cells: RAW264.7 G9 macrophages from mouse bearing reporters for p65 (GFP) and the Tnf promoter (mCherry)
Reagent: siRNA pool against mouse genes, 100 nM
Time to read-out: 16 h of LPS stimulation, after 2 days of siRNA transfection
Treatment: bacterial lipopolysaccharide (Salmonella minnesota R595), 10 ng/ml
Read-out: 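Nuclear mCherry signal of the Tnf promoter reporter measured by imaging after background removal, scaled to each plate median and turned into robust z-scores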
Scale: Tnf reporter robust z-score: higher = stronger Tnf promoter reporter signal after LPS; Tnf reporter intensity: higher = stronger Tnf promoter reporter signal
Call rule: 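Called active when robust z-score is at most -1.3, matching the median of the Tlr4 knock-down control, or over 3; control wells and wells with under 50 cells never active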
Calls: active = Tnf reporter clearly lowered or raised; inactive = no clear change in Tnf reporter
In all, the deposit lists about 17,000 reagents; shown is a part drawn at random. About 1,110 of them (6.6%) were called active. 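Active means lowered or raised reporter signal; replicate intensities are raw and not normalised per plate.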 Unmarked entries are inactive. The numbers tell different reagents against one gene apart. Further read-outs or replicates are left out here.

Gene	reagent	Tnf reporter robust z-score	fewer than 50 cells in well	Tnf reporter intensity, replicate 1
Sec24a	1	-0.03	enough cells in well	266
Hspa12b	1	2.42	enough cells in well	368
Doc2g	1	1.74	enough cells in well	245
H2bc8	1		fewer than 50 cells per well; well left out of calls	122
Nsa2	1	-0.02	enough cells in well	147
Cbln3	1	-1.53 (active)	enough cells in well	54.7
S100a1	1	0.48	enough cells in well	416
Slc16a12	1	-1.13	enough cells in well	113
Prc1	1	0.6	enough cells in well	276
Map2k3	1	-1.36 (active)	enough cells in well	108
Reep6	1	0.85	enough cells in well	228
Rgp1	1	-0.35	enough cells in well	277
Rph3a	1	0.52	enough cells in well	152
Atp6v0e	1	-0.5	enough cells in well	138
Nox1	1	4.05 (active)	enough cells in well	349
Kcnk3	1	1.55	enough cells in well	316
Xpo4	1	0.11	enough cells in well	79
Gzmm	1	-0.87	enough cells in well	183
Tm4sf1	1	0.07	enough cells in well	255
Adipor2	1	0.81	enough cells in well	302
Tead4	1		fewer than 50 cells per well; well left out of calls	70.2
Rragc	1	-0.03	enough cells in well	141
Rpl39	1	-1.46 (active)	enough cells in well	68.7
Fubp1	1	-0.06	enough cells in well	225
A130079P16Rik (retired record)	1		fewer than 50 cells per well; well left out of calls	124
Bfsp2	1	0.29	enough cells in well	157
1700001F09Rik	1		fewer than 50 cells per well; well left out of calls	84.3
Sytl4	1	-0.94	enough cells in well	81.9
Mrpl35	1	3.57 (active)	enough cells in well	431
Spata1	1	-0.03	enough cells in well	204
Stard3nl	1	2.07	enough cells in well	236
Poglut1	1	1	enough cells in well	244
Col11a2	1	0.42	enough cells in well	248
Drd2	1	1.25	enough cells in well	343
Txlng	1		fewer than 50 cells per well; well left out of calls	205
Pomc	1	-0.75	enough cells in well	191
Myh14	1		fewer than 50 cells per well; well left out of calls	209
Cfap161	1	-1.2	enough cells in well	131
Son	1	-0.51	enough cells in well	260

Hits, among the entries above:
Gene	reagent	Tnf reporter robust z-score	fewer than 50 cells in well	Tnf reporter intensity, replicate 1
Cbln3	1	-1.53 (active)	enough cells in well	54.7
Map2k3	1	-1.36 (active)	enough cells in well	108
Nox1	1	4.05 (active)	enough cells in well	349
Rpl39	1	-1.46 (active)	enough cells in well	68.7
Mrpl35	1	3.57 (active)	enough cells in well	431

Additional reagents follow.
Gene	reagent	Tnf reporter robust z-score	fewer than 50 cells in well	Tnf reporter intensity, replicate 1
Apcs	1		fewer than 50 cells per well; well left out of calls	86.9
4833414E09Rik	1		fewer than 50 cells per well; well left out of calls	165
Sec22c	1	1.88	enough cells in well	146
Ctsk	1	-1.46 (active)	enough cells in well	112
Kynu	1	0.58	enough cells in well	297
Copb1	1		fewer than 50 cells per well; well left out of calls	70.3
Pramel4	1	-0.42	enough cells in well	115
Pramel4	2	-0.31	enough cells in well	117
Or52h2	1	1.87	enough cells in well	151
Pitpnb	1	0.04	enough cells in well	139
Gtf2f2	1	-0.43	enough cells in well	204
Or51a42	1	0.83	enough cells in well	113
Inpp4a	1	-0.34	enough cells in well	216
Cox6a1	1	0.11	enough cells in well	178
AI467606	1	-0.26	enough cells in well	162
Mrpl37	1	0.31	enough cells in well	239
Ifi202b	1	-0.89	enough cells in well	168
Trappc6a	1		fewer than 50 cells per well; well left out of calls	168
Cpne7	1	1.15	enough cells in well	335
Myh7	1	-0.81	enough cells in well	183
Pltp	1	-0.93	enough cells in well	141
Treml4	1		fewer than 50 cells per well; well left out of calls	174
Als2	1	0.29	enough cells in well	211
Vmn1r67	1	0.31	enough cells in well	128
Fgd4	1	0.92	enough cells in well	297
Fbxo31	1	-0.89	enough cells in well	173
Erbb3	1	0.3	enough cells in well	204
Tmbim1	1		fewer than 50 cells per well; well left out of calls	104
Zfp316	1	-0.4	enough cells in well	146
Nfib	1	-0.71	enough cells in well	192
Nfib	2	-0.8	enough cells in well	129
Zbtb8b	1	2.45	enough cells in well	219
Fmo9	1		fewer than 50 cells per well; well left out of calls	281
Pou2f2	1	-0.31	enough cells in well	99.6
Snx19	1		fewer than 50 cells per well; well left out of calls	81.1
Eif4g2	1	-0.42	enough cells in well	135
